# The list shows a part of the results.
# B1: FGF1 (Homo sapiens), P05230 (protein)
# chain: MAEGEITTFTALTEKFNLPPGNYKKPKLLYSNGGHFLRILPDGTVDGTRDRSDQHIQLQLSAESVGEVYIKSTETGQYLAMTDGLLYGSQTPNEECLFLERLEENHYNTYISKHAEKNWFVGLKKNGSCKRGPRTHYGQAILFLPLPASSED
# Legend:
# Assay in all cases: glycan array binding signal (z-score within array); higher = stronger binding
# Details in all cases: glycan notation: IUPAC condensed, linker removed
# [1] = molecular target: Neu5Gc(a2-8)Neu5Gc(a2-3)Gal(b1-4)GlcNAc(b1-3)Gal(b1-4)GlcNAc
# Summary of the method: (§1)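 Glycan array data came from 3228 arrays in the Consortium for Functional Glycomics database, and only arrays with an available protein sequence were kept. Glycan names were put into IUPAC-condensed notation, and columns mapping to the same glycan were averaged. The binding signal is a within-array Z-score, averaged across arrays of one protein sequence run at different concentrations or buffers and across linkers. A negative Z-score can be read as non-binding.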
# [2] = molecular target: Neu5Gc(a2-8)Neu5Gc(a2-6)Gal(b1-4)GlcNAc
# Summary of the method: as §1
# [3] = molecular target: Neu5Gc(b2-6)Gal(b1-4)GlcNAc
# Summary of the method: as §1
binder,measurement,setting,value
B1,glycan array binding signal (z-score),[1],-0.879
same,glycan array binding signal (z-score),[2],-0.059
same,glycan array binding signal (z-score),[3],0.513
